The record followed here is paper PMC8901925.

Chains of the proteins cited; added tags and fusions are not shown.
UniProt P35579: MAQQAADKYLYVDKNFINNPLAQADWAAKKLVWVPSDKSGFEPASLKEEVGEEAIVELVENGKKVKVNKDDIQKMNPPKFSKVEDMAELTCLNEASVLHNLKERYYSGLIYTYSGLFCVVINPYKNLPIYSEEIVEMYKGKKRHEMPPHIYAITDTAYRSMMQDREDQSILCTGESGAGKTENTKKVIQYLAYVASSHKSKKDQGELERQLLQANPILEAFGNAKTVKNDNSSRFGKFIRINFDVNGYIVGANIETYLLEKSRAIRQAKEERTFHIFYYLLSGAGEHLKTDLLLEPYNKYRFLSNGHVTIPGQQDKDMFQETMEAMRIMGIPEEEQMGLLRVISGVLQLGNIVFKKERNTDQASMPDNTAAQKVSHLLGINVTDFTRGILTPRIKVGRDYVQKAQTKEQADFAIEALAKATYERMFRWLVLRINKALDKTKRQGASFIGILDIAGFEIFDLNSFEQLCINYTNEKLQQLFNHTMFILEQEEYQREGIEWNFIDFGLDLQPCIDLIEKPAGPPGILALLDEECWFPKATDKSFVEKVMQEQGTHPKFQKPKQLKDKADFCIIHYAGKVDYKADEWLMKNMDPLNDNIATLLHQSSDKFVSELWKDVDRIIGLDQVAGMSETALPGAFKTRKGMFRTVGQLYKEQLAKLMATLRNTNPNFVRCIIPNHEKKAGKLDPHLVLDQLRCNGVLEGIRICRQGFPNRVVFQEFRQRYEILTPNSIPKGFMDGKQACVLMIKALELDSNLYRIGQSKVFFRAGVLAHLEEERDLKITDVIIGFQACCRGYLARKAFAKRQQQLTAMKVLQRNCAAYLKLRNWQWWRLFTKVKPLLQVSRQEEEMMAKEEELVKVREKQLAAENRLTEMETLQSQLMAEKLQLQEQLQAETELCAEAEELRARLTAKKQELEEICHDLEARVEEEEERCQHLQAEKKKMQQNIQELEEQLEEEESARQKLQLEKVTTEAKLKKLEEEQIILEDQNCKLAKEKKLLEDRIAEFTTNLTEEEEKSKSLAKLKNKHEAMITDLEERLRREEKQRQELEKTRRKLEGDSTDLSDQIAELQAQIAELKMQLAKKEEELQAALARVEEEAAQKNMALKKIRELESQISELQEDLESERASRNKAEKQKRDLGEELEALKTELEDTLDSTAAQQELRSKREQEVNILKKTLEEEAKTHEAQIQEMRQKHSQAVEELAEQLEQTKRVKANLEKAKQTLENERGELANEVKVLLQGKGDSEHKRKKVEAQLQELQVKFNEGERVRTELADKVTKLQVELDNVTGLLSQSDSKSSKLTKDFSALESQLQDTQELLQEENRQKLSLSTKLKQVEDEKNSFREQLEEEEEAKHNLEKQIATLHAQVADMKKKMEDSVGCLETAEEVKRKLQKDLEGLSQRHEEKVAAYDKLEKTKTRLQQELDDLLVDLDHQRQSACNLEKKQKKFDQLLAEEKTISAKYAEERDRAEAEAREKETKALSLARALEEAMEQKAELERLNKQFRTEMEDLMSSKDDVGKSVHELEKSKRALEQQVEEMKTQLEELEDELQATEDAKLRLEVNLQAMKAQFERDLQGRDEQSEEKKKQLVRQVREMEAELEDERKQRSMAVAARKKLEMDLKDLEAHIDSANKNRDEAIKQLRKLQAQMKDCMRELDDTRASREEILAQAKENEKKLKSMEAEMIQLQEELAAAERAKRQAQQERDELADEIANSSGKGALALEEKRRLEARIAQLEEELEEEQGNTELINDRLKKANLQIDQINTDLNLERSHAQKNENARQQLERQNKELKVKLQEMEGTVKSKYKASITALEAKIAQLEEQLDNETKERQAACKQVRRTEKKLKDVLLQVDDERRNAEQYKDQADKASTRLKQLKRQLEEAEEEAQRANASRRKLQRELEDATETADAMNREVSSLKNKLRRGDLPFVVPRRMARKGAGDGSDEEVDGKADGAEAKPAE

No constants are given. Whether binding was seen depends on the method and setting. In cells and extracts the contact can be indirect. Here binding means that the protein was enriched with, or labelled near, the bait; the list need not be complete. Where a sequence is shown, tags or fusion partners need not be part of it.

This assay addresses T1, Glycoprotein prostaglandin D2 synthase (PTGDS) (human (endogenous in LY1 and LY3)) (UniProt P41222).
T1 sequence (chain, N-glycosylation at Asn51 and Asn78): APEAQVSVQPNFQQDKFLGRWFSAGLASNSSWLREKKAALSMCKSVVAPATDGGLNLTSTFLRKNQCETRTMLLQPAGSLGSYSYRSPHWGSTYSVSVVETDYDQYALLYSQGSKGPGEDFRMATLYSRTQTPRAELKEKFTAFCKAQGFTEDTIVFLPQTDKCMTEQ
Nature of the assay: affinity purification with mass spectrometry; co-immunoprecipitation of PTGDS (Pierce Co-Immunoprecipitation Kit) from DLBCL cells, mass spectrometry by Novogene.

In the case of MYH9 (from UniProt P35579 1-1960), the binding entry is “binds”.
